Assay results as given in patent publication EP4592253A1, “PROCESS FOR BREAKING UP ORGANIC PARTICLE AND MAGNETIC MATERIAL AGGREGATES USING AQUEOUS SOLUTIONS OF CARBONATES” (Captioplastic, S.L., priority 2024, dated 2025).

Test: Reuse of recovered magnetic iron material for magnetic separation of polyethylene microplastics from water
Conditions: for Formation of an aggregate again / MP capture efficiency with the reused magnetite (%): salt 0.95 M; for Formation of an aggregate again: washed with 1 L of water; for microplastic capture efficiency with the reused magnetic iron material: Figures 7, 8, 94 g/L of KHCO3 or 107.8 g/L of Na2CO3, washed with 1 L of water; for MP capture efficiency with the reused magnetite (%): PE 20 mg, reused magnetite 40 mg

With `[Cl-].[Na+]` [NaCl, sodium chloride, reference compound] the “Formation of an aggregate again” value (reuse cycle 1) was “No”.
For `O=P([O-])(O)O.[Na+]` [NaH2PO4, sodium biphosphate, reference compound], the “Formation of an aggregate again” value (reuse cycle 1) was “No”.
With `O=C([O-])O.[K+]` [KHCO3, potassium bicarbonate] the “microplastic capture efficiency with the reused magnetic iron material” value was 99%.
In the case of `O=C([O-])[O-].[Na+].[Na+]` [Na2CO3, sodium carbonate], the “microplastic capture efficiency with the reused magnetic iron material” value is reported as 99%.
With `O=C([O-])O.[Na+]` [NaHCO3] the “efficiency of the reuse of the magnetic iron material” value (Figure 2, reused up to at least 10 times, treatment with abundant water) was greater than 95%, the “MP capture efficiency with the reused magnetite (%)” value (“MP capture efficiency … (%)” below) (reuse cycle 1) was greater than 95% and the “Formation of an aggregate again” value (reuse cycle 1) was “Yes”. The “MP capture efficiency … (%)” value (reuse cycle 2) was greater than 95%, the “Formation of an aggregate again” value (reuse cycle 2) was “Yes” and the “MP capture efficiency … (%)” value (reuse cycle 3) was greater than 95%. For the same compound, the “Formation of an aggregate again” value (reuse cycle 3) was “Yes”, the “MP capture efficiency … (%)” value (reuse cycle 4) was greater than 95% and the “Formation of an aggregate again” value (reuse cycle 4) was “Yes”. The “MP capture efficiency … (%)” value (reuse cycle 5) was greater than 95%, the “Formation of an aggregate again” value (reuse cycle 5) was “Yes” and the “MP capture efficiency … (%)” value (reuse cycle 6) was greater than 95%. The “Formation of an aggregate again” value (reuse cycle 6) was “Yes”, the “MP capture efficiency … (%)” value (reuse cycle 7) was greater than 95% and the “Formation of an aggregate again” value (reuse cycle 7) was “Yes”. The “MP capture efficiency … (%)” value (reuse cycle 8) was greater than 95%, the “Formation of an aggregate again” value (reuse cycle 8) was “Yes” and the “MP capture efficiency … (%)” value (reuse cycle 9) was greater than 95%. The “Formation of an aggregate again” value (reuse cycle 9) was “Yes”, the “MP capture efficiency … (%)” value (reuse cycle 10) was greater than 95% and the “Formation of an aggregate again” value (reuse cycle 10) was “Yes”.
